# Assay results from the supplement of paper PMC12889115.
# Some of the results follow. Values are raw readings; no control value is given beside them.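 In the initial screen, polymyxin B was used at a concentration that permeabilizes Salmonella's outer membrane but not its inner membrane. Maximum growth was set by DMSO wells with or without polymyxin B. Since plates varied, data were ranked per plate, and compounds giving the lowest OD600 advanced as hits.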
# Tested on: Salmonella enterica serovar Typhimurium SL1344
# Test: bacterial growth OD600 after 18 h with compound and polymyxin B; higher = more bacterial growth (less inhibition)
# Conditions: 50 µM, Mueller-Hinton broth
compound,measurement,setting,value
CC(C)n1cc(C(=O)NCc2ccccc2)c(=O)c(C(=O)N2CCN(C/C=C/c3ccccc3)CC2)c1,bacterial growth OD600,polymyxin B 0.75 µg/mL,0.763
CCCCC1CN(CCNC(=O)C2CC=CCC2)Cc2ccccc2O1 (centres undefined),bacterial growth OD600,polymyxin B 0.75 µg/mL,0.758
CC(=O)NCC(=O)N(CC1CCN(Cc2ccccc2C)CC1)CC1CCCO1 (centres undefined),bacterial growth OD600,polymyxin B 1 µg/mL,1.13
CCN(C)Cc1cnc(S(=O)(=O)CC)n1CCc1ccccc1,bacterial growth OD600,polymyxin B 1 µg/mL,1.18
Cc1cccc(CN2CCC(C(=O)Nc3ccc(Oc4cccnc4)cc3)CC2)c1,bacterial growth OD600,polymyxin B 1 µg/mL,0.604
CCC(O)C1CCN(Cc2cnc(S(=O)(=O)C(C)C)n2CCc2ccccc2)CC1 (centres undefined),bacterial growth OD600,polymyxin B 1 µg/mL,0.024
c1ccc(CCC2CCCCN2Cc2nc(-c3cnccn3)no2)nc1 (centres undefined),bacterial growth OD600,polymyxin B 1 µg/mL,1
CC1CN(CCC(=O)N2CCC(C(C)N3CCOCC3)CC2)Cc2cc(Cl)ccc2O1 (centres undefined),bacterial growth OD600,polymyxin B 0.75 µg/mL,0.734
CCn1cc(C(=O)N2CCCC(CCc3ccccc3F)C2)cn1 (centres undefined),bacterial growth OD600,polymyxin B 0.75 µg/mL,0.447
C=CCCC(=O)NC(C)c1cnc(N(C)C2CCCCC2)nc1C (centres undefined),bacterial growth OD600,polymyxin B 0.75 µg/mL,0.553
COC(=O)[C@@H](NC(=O)CC1(c2ccc(OC)cc2)CC(=O)N(C2CCCC2)C1=O)c1ccccc1 (some centres undefined),bacterial growth OD600,polymyxin B 0.75 µg/mL,0.852
O=C(NC1CCCC1)c1ccc(OC2CCN(C3CCC3)CC2)c(Cl)c1,bacterial growth OD600,polymyxin B 1 µg/mL,1.08
COCCn1cc(C(=O)NC2CCCCCCC2)c(=O)c(C(=O)N2C[C@@H](C)O[C@@H](C)C2)c1,bacterial growth OD600,polymyxin B 0.75 µg/mL,0.809
CN(CC1CCCN(CCc2ccc(Cl)cc2)C1)C(=O)c1ccsc1 (centres undefined),bacterial growth OD600,polymyxin B 1 µg/mL,0.863
Cc1nc2ccccc2n1Cc1cc(C(=O)N2CCCCCC2)n[nH]1,bacterial growth OD600,polymyxin B 1 µg/mL,0.863
Cc1nc(N2CCC(C(=O)N3CCC(O)(c4cccnc4)CC3)CC2)nc2ccc(C(C)C)cc12,bacterial growth OD600,polymyxin B 0.75 µg/mL,0.782
Cc1cc(C(=O)N2CCCC(CNC(=O)c3cc4ccccc4[nH]3)C2)nc(C)n1 (centres undefined),bacterial growth OD600,polymyxin B 1 µg/mL,1.05
COc1ccc(CCc2nnc(CCC(=O)NCc3ccccc3F)o2)cc1,bacterial growth OD600,polymyxin B 1 µg/mL,0.961
CCNC(=O)c1cn(CCc2ccccc2)cc(C(=O)N2CCN(c3ccc(OC)cc3)CC2)c1=O,bacterial growth OD600,polymyxin B 0.75 µg/mL,0.77

# Arranged by formula weight (smallest number first): some entries from above.
compound,measurement,setting,value
O=C(NC1CCCC1)c1ccc(OC2CCN(C3CCC3)CC2)c(Cl)c1,bacterial growth OD600,polymyxin B 1 µg/mL,1.08
Cc1cccc(CN2CCC(C(=O)Nc3ccc(Oc4cccnc4)cc3)CC2)c1,bacterial growth OD600,polymyxin B 1 µg/mL,0.604
CC1CN(CCC(=O)N2CCC(C(C)N3CCOCC3)CC2)Cc2cc(Cl)ccc2O1 (centres undefined),bacterial growth OD600,polymyxin B 0.75 µg/mL,0.734
